Test results taken from article PMC4974570.
Construct, isoform or probe ends are uncertain for at least one entry.

Amino acid sequences for entries named in this document (tags omitted). A change or cut given only in a name is not applied to a line headed by its entry.
UniProt P23836: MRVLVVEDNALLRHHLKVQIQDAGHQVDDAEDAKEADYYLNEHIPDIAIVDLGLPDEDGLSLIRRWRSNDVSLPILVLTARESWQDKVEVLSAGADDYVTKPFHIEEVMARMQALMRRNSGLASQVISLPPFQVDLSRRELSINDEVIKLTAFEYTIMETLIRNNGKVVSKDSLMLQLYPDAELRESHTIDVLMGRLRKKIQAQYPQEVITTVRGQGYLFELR

Target: PhoP-His6 (phosphorylated, PhoP-P) (UniProt P23836)
Test: EMSA
Settings: PhoP phosphorylated by acetyl phosphate, poly(dI-dC) 50 ng/ul; 50 mM Tris-Cl pH 7.5, 50 mM KCl, 1 mM DTT, 50 ug/ml BSA, 5% glycerol, 50 ng/ul poly(dI-dC), 10 fmol probe in 20 ul, 20 min at 25 C; 5% native PAGE in 0.5x TAE; recombinant protein; protein details: His6 (pET22b, pTM50); label: alpha-32P dATP Klenow fill-in; probe letters rebuilt from the primers and the genome

“AATTCATCTGGATAAATAAATTGACGGCGGCATCGGTAATTTTATATTCGTTATCATTAAAAACTAATACAGAAAAAATAAATATAATTTTGGTGAATGTTTTGACATGATTAAATCCATTTTCTTTATTTTCTTCTGACATAATACGTTACTCCCTTTAATTATTAACGATATGTTTCGCATTTTTCTTTAAACCTGCCTGTAACAGAATGTTAATAAGACATGATTGTTGTGGCAGGATCTGCAATAATTAACAATTATCCACTTCACAGAGAATGCT (double strand) [X1 (queE upstream)]”: binds.

“AATTCTATCCCATCATTACGTTTGGCATCTCCTAAACGCCAATTGTCAAAAACTCTTGTAGCATATTGTTCAATTGTCTCGTCTTTGGTTGTGGGAACAATTAATACGGCAATTTGCACTTGGGTATTATTGAAAATAGATTCTAACTTGTGCGTCAGTTCTTTCTTTTCTTGTGAGTTTAAGCTACTCGTAAGATCCGTAACTTGTTGCTGTAATTGTGGGACAATAGTTGGTTGGGCTGCAACAAAGGAACATACGAAAGTGAACATTAGTATGAAATAGCGCATTATAAATTTCTCA (double strand) [X2 (upstream of X1)]”: binds.
